Assay results: EP4603498A1, “PEPTIDE HAVING ACTIVITIES TO PROMOTE HAIR GROWTH AND TO INHIBIT HAIR LOSS AND USE THEREOF” (Caregen Co., Ltd., priority 2022, dated 2025)
Part of at least one peptide drawing is inferred or uncertain, most often the ends. Residues, ends and D or L forms follow the SMILES beside them.

What was measured:
bFGF = experiment: Expression of growth factor bFGF in HHFDPCs by RT-PCR; assay type: cell-based, human; details: peptide at 10 µM, 50 µM and 100 µM, 24 hours, FIGS. 3a and 3b
[1] = system: human hair follicle dermal papilla cells (HHFDPCs); experiment: Proliferation of human hair follicle dermal papilla cells (MTT assay); assay type: cell-based; details: peptide at 10 µM and 100 µM, 72 hours, MTT absorbance at 540 nm, compared to the negative control (con); FIG. 1
[2] = system: human hair outer root sheath cells (HHORSCs); experiment: Proliferation of human hair outer root sheath cells (MTT assay); assay type: cell-based; details: peptide at 50 µM and 100 µM, 72 hours, MTT absorbance at 540 nm, compared to the negative control group (con); FIG. 2
KGF = experiment: Expression of growth factor KGF in HHFDPCs by RT-PCR; assay type: cell-based, human; details: peptide at 10 µM, 50 µM and 100 µM, 24 hours, FIGS. 3a and 3b
DKK-1 = experiment: Expression of DHT-induced hair loss protein DKK-1 in HHFDPCs by Western blot; assay type: cell-based, human; details: peptide at 10 µM, 50 µM and 100 µM with 100 nM DHT, 24 hours, FIGS. 4a and 4b
VEGF = experiment: Expression of growth factor VEGF in HHFDPCs by RT-PCR; assay type: cell-based, human; details: peptide at 10 µM, 50 µM and 100 µM, 24 hours, FIGS. 3a and 3b

## CSCC[C@H](NC(=O)[C@H](C)NC(=O)[C@@H](N)CC(C)C)C(=O)N[C@@H](CC(=O)O)C(=O)O [peptide of Preparation Example 1, LAMD (Leu-Ala-Met-Asp)] (H-LAMD-OH)
bFGF
  expression of growth factor bFGF: promoting the expression of growth factors
[1]
  proliferation of HHFDPCs: promoted the proliferation of HHFDPCs
[2]
  proliferation of HHORSCs: promoted the proliferation of HHORSCs
KGF
  expression of growth factor KGF: promoting the expression of growth factors
DKK-1
  expression of DKK-1, a hair loss protein induced by DHT treatment: reduced in a concentration-dependent manner
VEGF
  expression of growth factor VEGF: promoting the expression of growth factors
